Taken from: PubChem BioAssay AID1159578 (Peter MacCallum Cancer Centre, 2015)

Screen: 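siRNA pools altering how lymphatic endothelial cells close a scratch wound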 (primary screen)
System: human lymphatic endothelial cells
Reagent: siRNA pool against human genes, 40 nM
Time to read-out: 48 h after transfection
Read-out: 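High-content imaging of dye-stained cells in a scratch assay measures filled wound area and nuclei per well; duplicate means given as ratio to mock and robust z-score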
Scale: migration robust z-score: higher = faster migration into the scratch; migration relative to mock: higher = more scratch area covered than mock; nuclei per well: higher = more cells in the well
Rule for the call: 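Migration changed when robust z exceeds 2 or falls below -2 and mean nuclei number is at least 3300; otherwise not called changed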
Meaning of the calls: active = migration changed; inactive = no migration change, or too few cells
The deposit covers about 18,000 reagents; below is an unselected part. About 1,030 of all reagents (5.7%) count as active. 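Inactive calls also include pools with fewer than 3300 nuclei, whose migration was not assessed.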 Raw values vary from plate to plate and are shown uncorrected. A number with no mark means an inactive call.

| target gene | migration robust z-score | migration class with cell-count check | migration relative to mock | nuclei per well, duplicate mean |
| --- | --- | --- | --- | --- |
| UNC50 (unc-50 inner nuclear membrane RNA binding protein) | -0.92 | migration z between -2 and 2; enough cells | 0.64 | 4384 |
| RAB3IL1 (RAB3A interacting protein like 1) | -1.47 | migration z between -2 and 2; enough cells | 0.5 | 5741 |
| OR4N3P (olfactory receptor family 4 subfamily N member 3 pseudogene) | -2.7 (active) | migration z below -2; enough cells | 0.19 | 3518 |
| C2orf15 (chromosome 2 open reading frame 15) | -1.27 | migration z between -2 and 2; enough cells | 0.56 | 4194 |
| RUFY1 (RUN and FYVE domain containing 1) | 0.28 | migration z between -2 and 2; enough cells | 0.86 | 5824 |
| AP2B1 (adaptor related protein complex 2 subunit beta 1) | -3.25 (active) | migration z below -2; enough cells | 0.18 | 5264 |
| NLRP11 (NLR family pyrin domain containing 11) | 1.12 | migration z between -2 and 2; enough cells | 1.02 | 4324 |
| TTC3 (tetratricopeptide repeat domain 3) | -0.11 | migration z between -2 and 2; enough cells | 0.78 | 5319 |
| NRBP2 (nuclear receptor binding protein 2) | -0.02 | migration z between -2 and 2; enough cells | 0.8 | 4996 |
| SAXO5 (stabilizer of axonemal microtubules 5) | -2.48 | under 3300 nuclei; migration not judged | 0.24 | 1980 |
| TSKS (testis specific serine kinase substrate) | -0.55 | migration z between -2 and 2; enough cells | 0.7 | 3934 |
| ROM1 (retinal outer segment membrane protein 1) | -0.02 | migration z between -2 and 2; enough cells | 0.8 | 5592 |
| TSN (translin) | -1.32 | migration z between -2 and 2; enough cells | 0.54 | 6165 |
| IL22 (interleukin 22) | -1.63 | migration z between -2 and 2; enough cells | 0.46 | 5572 |
| NDFIP2 (Nedd4 family interacting protein 2) | -0.51 | migration z between -2 and 2; enough cells | 0.75 | 5812 |
| USP29 (ubiquitin specific peptidase 29) | 1.02 | migration z between -2 and 2; enough cells | 1 | 5324 |
| WFDC10B (WAP four-disulfide core domain 10B) | 1.33 | migration z between -2 and 2; enough cells | 1.23 | 5832 |
| CATSPER4 (cation channel sperm associated 4) | 0.54 | migration z between -2 and 2; enough cells | 0.91 | 4340 |
| FCGR2A (Fc gamma receptor IIa) | -1.35 | migration z between -2 and 2; enough cells | 0.54 | 5642 |
| GGT1 (gamma-glutamyltransferase 1) | -0.05 | migration z between -2 and 2; enough cells | 0.8 | 5094 |
| KIFAP3 (kinesin associated protein 3) | 0.42 | migration z between -2 and 2; enough cells | 0.88 | 6534 |
| IFNA16 (interferon alpha 16) | 0 | migration z between -2 and 2; enough cells | 0.88 | 4978 |
| SLITRK1 (SLIT and NTRK like family member 1) | -2.54 (active) | migration z below -2; enough cells | 0.22 | 4078 |
| NINJ2 (ninjurin 2) | -0.66 | migration z between -2 and 2; enough cells | 0.71 | 5844 |
| FANCA (FA complementation group A) | -0.21 | migration z between -2 and 2; enough cells | 0.76 | 5274 |
| ITGB2 (integrin subunit beta 2) | -0.78 | migration z between -2 and 2; enough cells | 0.68 | 5509 |
| MN1 (MN1 proto-oncogene, transcriptional regulator) | -1.64 | migration z between -2 and 2; enough cells | 0.46 | 7145 |
| GPRC5C (G protein-coupled receptor class C group 5 member C) | -1.55 | migration z between -2 and 2; enough cells | 0.5 | 6365 |
| RABL2B (RAB, member of RAS oncogene family like 2B) | -1.38 | migration z between -2 and 2; enough cells | 0.54 | 5225 |
| AQP9 (aquaporin 9) | -0.21 | migration z between -2 and 2; enough cells | 0.76 | 5258 |
| CRYGC (crystallin gamma C) | 1 | migration z between -2 and 2; enough cells | 1.15 | 6123 |
| MTPAP (mitochondrial poly(A) polymerase) | 0.63 | migration z between -2 and 2; enough cells | 1.05 | 6137 |
| FRMPD4 (FERM and PDZ domain containing 4) | 0.98 | migration z between -2 and 2; enough cells | 1.14 | 5416 |
| NDUFA12 (NADH:ubiquinone oxidoreductase subunit A12) | -1.79 | migration z between -2 and 2; enough cells | 0.46 | 4214 |
| RPS3A (ribosomal protein S3A) | 0.52 | migration z between -2 and 2; enough cells | 1.02 | 4487 |
| CHCHD5 (coiled-coil-helix-coiled-coil-helix domain containing 5) | -1.64 | migration z between -2 and 2; enough cells | 0.46 | 5624 |
| SLC6A15 | -1.27 | migration z between -2 and 2; enough cells | 0.56 | 4574 |
| MRPL46 (mitochondrial ribosomal protein L46) | -0.41 | migration z between -2 and 2; enough cells | 0.78 | 5738 |
| SIN3A (SIN3 transcription regulator family member A) | 0.21 | migration z between -2 and 2; enough cells | 0.84 | 5124 |
| LHFPL4 (LHFPL tetraspan subfamily member 4) | 0.5 | migration z between -2 and 2; enough cells | 1.02 | 5770 |
| AHI1 (Abelson helper integration site 1) | -1.23 | migration z between -2 and 2; enough cells | 0.56 | 5260 |
| ZPBP2 (zona pellucida binding protein 2) | -0.25 | migration z between -2 and 2; enough cells | 0.82 | 5294 |
| GTF2A1L (general transcription factor IIA subunit 1 like) | -0.08 | migration z between -2 and 2; enough cells | 0.86 | 6133 |
| AMPD3 (adenosine monophosphate deaminase 3) | 1.3 | migration z between -2 and 2; enough cells | 1.05 | 6135 |
| SLC36A4 | 0.42 | migration z between -2 and 2; enough cells | 0.88 | 6168 |
| LYSMD1 (LysM domain containing 1) | 2.07 (active) | migration z above 2; enough cells | 1.42 | 6326 |
| GIT1 (GIT ArfGAP 1) | -0.86 | migration z between -2 and 2; enough cells | 0.66 | 4832 |
| RBBP8 (RB binding protein 8, endonuclease) | -1.02 | migration z between -2 and 2; enough cells | 0.62 | 3372 |
| EVI5 (ecotropic viral integration site 5) | -0.45 | migration z between -2 and 2; enough cells | 0.76 | 6218 |
| TRIM37 (tripartite motif containing 37) | 0.49 | migration z between -2 and 2; enough cells | 0.9 | 5079 |
| PIGX (phosphatidylinositol glycan anchor biosynthesis class X) | 2.02 (active) | migration z above 2; enough cells | 1.41 | 6067 |
| SLC25A5 | -0.2 | migration z between -2 and 2; enough cells | 0.76 | 7186 |
| TTC7B (tetratricopeptide repeat domain 7B) | 1.31 | migration z between -2 and 2; enough cells | 1.22 | 5188 |
| HHIPL1 (HHIP like 1) | 0.65 | migration z between -2 and 2; enough cells | 1.06 | 6784 |
| FTHL17 (ferritin heavy chain like 17) | -0.66 | migration z between -2 and 2; enough cells | 0.72 | 5109 |
| FRA10AC1 (FRA10A associated CGG repeat 1) | -1.44 | migration z between -2 and 2; enough cells | 0.51 | 4314 |
| TSPYL2 (TSPY like 2) | 0.11 | migration z between -2 and 2; enough cells | 0.92 | 5946 |

5 consecutive records from above, quoted:
| target gene | migration robust z-score | migration class with cell-count check | migration relative to mock | nuclei per well, duplicate mean |
| --- | --- | --- | --- | --- |
| NRBP2 (nuclear receptor binding protein 2) | -0.02 | migration z between -2 and 2; enough cells | 0.8 | 4996 |
| SAXO5 (stabilizer of axonemal microtubules 5) | -2.48 | under 3300 nuclei; migration not judged | 0.24 | 1980 |
| TSKS (testis specific serine kinase substrate) | -0.55 | migration z between -2 and 2; enough cells | 0.7 | 3934 |
| ROM1 (retinal outer segment membrane protein 1) | -0.02 | migration z between -2 and 2; enough cells | 0.8 | 5592 |
| TSN (translin) | -1.32 | migration z between -2 and 2; enough cells | 0.54 | 6165 |
